Results of single-concentration screens

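Assay of Toxoplasma gondii numbers, read through their beta-galactosidase reporter with a colour substrate. Concentration: 50 µM. Higher reads as fewer parasites (inferred from which compounds were picked for retests). Of about 18,000 compounds tested this way, about 170 (0.94%) reached 50% or more in at least one test.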

The filed quantity is “Percent Effect” (%).
The record does not define 0% and 100%; most values in the screen are far below 50% and negative numbers occur (in some assays of this library far below -100).
This is an unselected part of the compounds tested.

structure	percent effect
CCN(CC)S(=O)(=O)c1ccc(OC)c(NC(C)=O)c1	-3.706
Nc1ncccc1CNC(=O)[C@H]1CCC[C@@H](O)C1	-10.79
O=C(CCC1CCCC1)N1CCNCC1	5.929
CNCC(C)C(=O)NC (stereo not given)	1.227
CCC(=O)NC(C)(C#N)C(C)C (stereo not given)	2.056
CCOc1ccccc1C(=O)N1CCC(N)CC1	9.165
COc1ccc2c(c1)CCN2C(=O)[C@@H](N)CC(C)C	-8.673
CC(C)CCNC(=O)CCCC(=O)Nc1ccccn1	-2.778
Cc1nnc(CN2CCCCC2c2ccccn2)o1 (stereo not given)	-3.747
CNC(=O)CN1CCNCC1	8.779
O=C(Nc1ncccc1O)c1ccoc1	-9.643
Cc1nccc(N)c1Br	-1.162
CSCC(N)c1ccccc1 (stereo not given)	5.248
Cc1nc2sccn2c1C(=O)NC1C=CS(=O)(=O)C1 (stereo not given)	3.134
CC(C(=O)N1CCCCCC1)N1CCNCC1 (stereo not given)	0.4728
CN(CC(=O)N(C)C)Cc1ccc(F)cc1Cl	3.019
CCOCc1nnc(C(C)N)o1 (stereo not given)	-4.9
CC(C)NC(=O)NC(=O)C(C)N1CCC(O)CC1 (stereo not given)	-8.567
CCN1CCCN(C(=O)c2ccc(C)c(F)c2)CC1	0.7771
COCCN(C(=O)Cc1cccc(C)c1)C(C)C(N)=O (stereo not given)	-1.472
O=C(NCC1(O)CCOCC1)Nc1cccc(F)c1	12.17
CCOC(=O)C1CCCN(Cc2cccnc2)C1 (stereo not given)	-2.327
COCC(=O)Nc1ccc(OCc2ccccn2)cc1	-6.783
CN(Cc1nc2ccccc2[nH]1)C(=O)c1cnc[nH]1	8.58
Cn1nc2n(c1=O)CCN(Cc1ccc(Br)o1)CC2	-6.654
Cc1cc(NC(=O)CN2CCN(C(C)C)CC2)n(C)n1	-5.421
Cc1n[nH]c(C)c1C(N)C(=O)NCCc1ccnn1C (stereo not given)	26.6
Cc1cnn(CCCNC(=O)CC2CSCCN2)c1 (stereo not given)	1.505
O=S(=O)(NCC(O)CN1CCCC1)C1CCCCC1 (stereo not given)	25.07
O=C(Nc1cncc(Br)c1O)c1cncc(F)c1	38.83
CC(C)(C)OC(=O)NCC1CNC(=O)C1 (stereo not given)	-9.36
Cc1ccc(S(=O)(=O)NCc2nnc(N)s2)cc1	6.486
O=C(NCC(O)C1CCOCC1)c1c(F)cccc1Cl (stereo not given)	0.4912
Cc1cc(NC(=O)c2ccc(S(C)(=O)=O)cc2)no1	1.537
Cc1ccoc1C(=O)N(C)Cc1ccc[nH]1	-0.1926
C=C(C)CCOC(=O)c1ccc(CS(C)(=O)=O)cc1	8.607
CC(N)c1nc(-c2ccccc2)c[nH]1 (stereo not given)	3.159
CN(C)S(=O)(=O)c1ccc(-c2csc(N)n2)cc1	4.576
Cn1ccnc1-c1noc(NC(=O)c2ccccn2)n1	1.512
CC(C)NC(=O)NCCN(C)C1CCCC1	3.458
CC(C)NC(=O)NC(=O)C(C)N1CCOCC1 (stereo not given)	13.36
O=C(NCCN1CCCC1)Nc1cccc2cn[nH]c12	-2.677
CCCNC(=O)c1onc(C)c1Cl	-8.061
CC(C)N(C)C(=O)Nc1ccccc1SCC(N)=O	3.798
CS(=O)(=O)NC1CCCNC1 (stereo not given)	-0.5488
CC(C)(C)c1nc(C(C)(C)N)no1	15.48
CNC(=O)CCNCc1ccc(Br)cc1	15.29
CCOC(=O)c1cn[nH]c1S(=O)(=O)N1CCCC1	10.51

Repeated from the top, 2 entries:

| structure | percent effect |
|---|---|
| `CCN(CC)S(=O)(=O)c1ccc(OC)c(NC(C)=O)c1` | -3.706 |
| `Nc1ncccc1CNC(=O)[C@H]1CCC[C@@H](O)C1` | -10.79 |

From ChEMBL document CHEMBL3988442, “University of Dundee, Small-Polar-MMV Screening Library” (2021).